PubChem BioAssay AID1259405 | NCATS, 2018
This is an unselected part of about 50,000 deposited reagents. Of all reagents, about 4,000 (8%) are marked active. 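Mouse siRNA library applied to hamster cells; one well for each siRNA.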 No sequences are given here.

- Assay: 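Mouse-designed siRNAs used to find CHO productivity engineering targets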 (primary screen)
- Cells: Chinese hamster CHO-K1 ovary cells with stable secreted eGFP expression
- Knock-down reagent: single siRNA against mouse genes, 0.8 pmol siRNA per well (2 µl of 400 nM stock)
- Time to read-out: 3 days
- Detection: 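Per-well intracellular GFP measured by laser scanning cytometry, plus viability from ATP luminescence, each relative to plate median of non-targeting control wells, in %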
- Scale: GFP, % of control: higher = more GFP per well, higher productivity; viability (ATP), % of control: higher = more viable cells (more ATP)
- Call rule: 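a knock-down is called active if GFP reaches 120% or more of non-targeting control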

gene | PubChem SID | GFP, % of control | viability (ATP), % of control | call
Tap1 | SID363575178 | 97.3 | 95.1 | inactive
Tap1 | SID363580810 | 69.9 | 65.3 | inactive
Tap1 | SID363582922 | 90.4 | 81 | inactive
Gata1 | SID363573260 | 40.8 | 53.9 | inactive
Gata1 | SID363588499 | 50.1 | 55.9 | inactive
Pmch | SID363541864 | 72.4 | 81.5 | inactive
Pmch | SID363553456 | 85 | 70.5 | inactive
Pmch | SID363566780 | 58 | 76.3 | inactive
Taar5 | SID363571346 | 156 | 104 | active
Taar5 | SID363571698 | 98.3 | 59.6 | inactive
Taar5 | SID363572050 | 44.4 | 37.5 | inactive
Mrpl40 | SID363562197 | 77.5 | 62.4 | inactive
Mrpl40 | SID363567335 | 72.6 | 90.3 | inactive
Mrpl40 | SID363584692 | 78.6 | 56.1 | inactive
Dnm2 | SID363541468 | 73.5 | 82.7 | inactive
Dnm2 | SID363556095 | 42.4 | 46.2 | inactive
Dnm2 | SID363566384 | 62.8 | 56.7 | inactive
Asph | SID363568794 | 83.4 | 78 | inactive
Asph | SID363576186 | 86.9 | 64 | inactive
Asph | SID363579002 | 81.9 | 62.5 | inactive
Atp2b3 | SID363545477 | 93.2 | 59.6 | inactive
Atp2b3 | SID363548990 | 62.8 | 79.4 | inactive
Atp2b3 | SID363562796 | 42.9 | 41 | inactive
Snap47 | SID363553787 | 88 | 69.5 | inactive
Snap47 | SID363561744 | 66.5 | 58 | inactive
Snap47 | SID363565482 | 93.6 | 90.5 | inactive
2310022A10Rik | SID363543584 | 109 | 83.2 | inactive
2310022A10Rik | SID363553077 | 59.8 | 95.5 | inactive
2310022A10Rik | SID363558925 | 99.7 | 105 | inactive
Npm2 | SID363582326 | 67.9 | 102 | inactive
Npm2 | SID363584086 | 75.2 | 75.4 | inactive
Kcnj6 | SID363574889 | 127 | 106 | active
Kcnj6 | SID363575945 | 111 | 59.1 | inactive
Kcnj6 | SID363580521 | 96.5 | 67.8 | inactive
Sdr42e1 | SID363569285 | 91.1 | 111 | inactive
Sdr42e1 | SID363583717 | 69.2 | 74.1 | inactive
Skp2 | SID363581702 | 77.3 | 92.1 | inactive
Skp2 | SID363589196 | 43.8 | 38.3 | inactive
Gpm6a | SID363540069 | 56.1 | 65.6 | inactive
Gpm6a | SID363561370 | 58.7 | 89.2 | inactive
Gpm6a | SID363564406 | 124 | 101 | active
Ang | SID363569843 | 138 | 98.7 | active
Ang | SID363576883 | 93.8 | 101 | inactive
Ang | SID363578291 | 41 | 26.9 | inactive
Ccr2 | SID363544287 | 48.4 | 25.7 | inactive
Ccr2 | SID363550615 | 86.5 | 96.5 | inactive
Ccr2 | SID363557164 | 69.3 | 60.6 | inactive
Slc16a12 | SID363574598 | 80.8 | 71.7 | inactive
Slc16a12 | SID363575654 | 37.7 | 49.9 | inactive
Slc16a12 | SID363580230 | 102 | 84 | inactive
Smcr8 | SID363555144 | 75.9 | 65.4 | inactive
Smcr8 | SID363568591 | 92.4 | 78.3 | inactive
Smcr8 | SID363586650 | 70.3 | 54.5 | inactive
Oas1g | SID363545200 | 89.9 | 82.8 | inactive
Oas1g | SID363548713 | 80.2 | 85.4 | inactive
Oas1g | SID363562519 | 48.9 | 59.2 | inactive
Prkn | SID363572546 | 70.3 | 65.7 | inactive
Prkn | SID363577826 | 95.5 | 83.5 | inactive
Prkn | SID363582050 | 77.4 | 98.5 | inactive
4930433N12Rik | SID363542287 | 73.2 | 66.3 | inactive
4930433N12Rik | SID363551778 | 124 | 72.8 | active
4930433N12Rik | SID363559383 | 107 | 61.7 | inactive
Fam163b | SID363550046 | 116 | 95.9 | inactive
Fam163b | SID363564555 | 63.3 | 64.8 | inactive
Fam163b | SID363588100 | 84.4 | 107 | inactive
Nup42 | SID363574628 | 51.8 | 49 | inactive
Nup42 | SID363575684 | 105 | 129 | inactive
Nup42 | SID363580260 | 96.7 | 97 | inactive
Immp2l | SID363574509 | 91.6 | 102 | inactive
Immp2l | SID363575565 | 58.6 | 50.7 | inactive
Immp2l | SID363580141 | 79.6 | 58.5 | inactive
Rhoj | SID363570312 | 134 | 122 | active
Rhoj | SID363576648 | 98.9 | 83.1 | inactive
Rhoj | SID363579816 | 95.2 | 79.4 | inactive
Ptpn7 | SID363547574 | 70.1 | 76.9 | inactive
Ptpn7 | SID363558343 | 77.1 | 74.4 | inactive
Ptpn7 | SID363560101 | 73.1 | 87.1 | inactive
Slc39a3 | SID363574668 | 60.4 | 79.1 | inactive
Slc39a3 | SID363575724 | 37.7 | 66 | inactive
Slc39a3 | SID363580300 | 85 | 57 | inactive
Panx2 | SID363554683 | 45.5 | 63.9 | inactive
Panx2 | SID363568130 | 99.8 | 86.9 | inactive
Panx2 | SID363586189 | 117 | 90.4 | inactive
Or10am5 | SID363544434 | 62.3 | 34.6 | inactive
Or10am5 | SID363550762 | 56.6 | 74.4 | inactive
Or10am5 | SID363557311 | 91.4 | 64.3 | inactive
